Reference: the supplement of paper PMC12067093, “Discovery and optimisation of a covalent ligand for TRIM25 and its application to targeted protein ubiquitination” (Chemical Science, 2025)
Some of the results follow.

Protein sequences, listed by entry. Tags and fused reporters are not part of them. Lines headed by an entry give the natural chain unless they say otherwise; changes in a name come on top.
UniProt P08236: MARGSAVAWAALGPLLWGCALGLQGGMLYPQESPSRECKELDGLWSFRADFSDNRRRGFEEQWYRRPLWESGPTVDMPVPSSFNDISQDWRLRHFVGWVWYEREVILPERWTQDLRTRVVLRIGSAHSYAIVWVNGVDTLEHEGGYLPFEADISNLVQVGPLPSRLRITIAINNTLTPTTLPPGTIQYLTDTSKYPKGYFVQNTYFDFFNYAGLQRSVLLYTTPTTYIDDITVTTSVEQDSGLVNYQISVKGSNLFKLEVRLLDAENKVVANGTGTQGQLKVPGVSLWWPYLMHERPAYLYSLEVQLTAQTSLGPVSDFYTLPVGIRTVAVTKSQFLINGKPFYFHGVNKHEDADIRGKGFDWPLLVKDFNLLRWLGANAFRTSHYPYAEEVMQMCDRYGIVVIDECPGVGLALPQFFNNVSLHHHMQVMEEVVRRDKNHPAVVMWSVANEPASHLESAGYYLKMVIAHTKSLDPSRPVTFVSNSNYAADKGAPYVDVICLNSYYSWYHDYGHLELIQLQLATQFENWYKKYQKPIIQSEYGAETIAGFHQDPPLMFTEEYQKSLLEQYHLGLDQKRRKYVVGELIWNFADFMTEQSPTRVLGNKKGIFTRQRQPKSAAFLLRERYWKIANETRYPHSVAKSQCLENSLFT
UniProt Q12789: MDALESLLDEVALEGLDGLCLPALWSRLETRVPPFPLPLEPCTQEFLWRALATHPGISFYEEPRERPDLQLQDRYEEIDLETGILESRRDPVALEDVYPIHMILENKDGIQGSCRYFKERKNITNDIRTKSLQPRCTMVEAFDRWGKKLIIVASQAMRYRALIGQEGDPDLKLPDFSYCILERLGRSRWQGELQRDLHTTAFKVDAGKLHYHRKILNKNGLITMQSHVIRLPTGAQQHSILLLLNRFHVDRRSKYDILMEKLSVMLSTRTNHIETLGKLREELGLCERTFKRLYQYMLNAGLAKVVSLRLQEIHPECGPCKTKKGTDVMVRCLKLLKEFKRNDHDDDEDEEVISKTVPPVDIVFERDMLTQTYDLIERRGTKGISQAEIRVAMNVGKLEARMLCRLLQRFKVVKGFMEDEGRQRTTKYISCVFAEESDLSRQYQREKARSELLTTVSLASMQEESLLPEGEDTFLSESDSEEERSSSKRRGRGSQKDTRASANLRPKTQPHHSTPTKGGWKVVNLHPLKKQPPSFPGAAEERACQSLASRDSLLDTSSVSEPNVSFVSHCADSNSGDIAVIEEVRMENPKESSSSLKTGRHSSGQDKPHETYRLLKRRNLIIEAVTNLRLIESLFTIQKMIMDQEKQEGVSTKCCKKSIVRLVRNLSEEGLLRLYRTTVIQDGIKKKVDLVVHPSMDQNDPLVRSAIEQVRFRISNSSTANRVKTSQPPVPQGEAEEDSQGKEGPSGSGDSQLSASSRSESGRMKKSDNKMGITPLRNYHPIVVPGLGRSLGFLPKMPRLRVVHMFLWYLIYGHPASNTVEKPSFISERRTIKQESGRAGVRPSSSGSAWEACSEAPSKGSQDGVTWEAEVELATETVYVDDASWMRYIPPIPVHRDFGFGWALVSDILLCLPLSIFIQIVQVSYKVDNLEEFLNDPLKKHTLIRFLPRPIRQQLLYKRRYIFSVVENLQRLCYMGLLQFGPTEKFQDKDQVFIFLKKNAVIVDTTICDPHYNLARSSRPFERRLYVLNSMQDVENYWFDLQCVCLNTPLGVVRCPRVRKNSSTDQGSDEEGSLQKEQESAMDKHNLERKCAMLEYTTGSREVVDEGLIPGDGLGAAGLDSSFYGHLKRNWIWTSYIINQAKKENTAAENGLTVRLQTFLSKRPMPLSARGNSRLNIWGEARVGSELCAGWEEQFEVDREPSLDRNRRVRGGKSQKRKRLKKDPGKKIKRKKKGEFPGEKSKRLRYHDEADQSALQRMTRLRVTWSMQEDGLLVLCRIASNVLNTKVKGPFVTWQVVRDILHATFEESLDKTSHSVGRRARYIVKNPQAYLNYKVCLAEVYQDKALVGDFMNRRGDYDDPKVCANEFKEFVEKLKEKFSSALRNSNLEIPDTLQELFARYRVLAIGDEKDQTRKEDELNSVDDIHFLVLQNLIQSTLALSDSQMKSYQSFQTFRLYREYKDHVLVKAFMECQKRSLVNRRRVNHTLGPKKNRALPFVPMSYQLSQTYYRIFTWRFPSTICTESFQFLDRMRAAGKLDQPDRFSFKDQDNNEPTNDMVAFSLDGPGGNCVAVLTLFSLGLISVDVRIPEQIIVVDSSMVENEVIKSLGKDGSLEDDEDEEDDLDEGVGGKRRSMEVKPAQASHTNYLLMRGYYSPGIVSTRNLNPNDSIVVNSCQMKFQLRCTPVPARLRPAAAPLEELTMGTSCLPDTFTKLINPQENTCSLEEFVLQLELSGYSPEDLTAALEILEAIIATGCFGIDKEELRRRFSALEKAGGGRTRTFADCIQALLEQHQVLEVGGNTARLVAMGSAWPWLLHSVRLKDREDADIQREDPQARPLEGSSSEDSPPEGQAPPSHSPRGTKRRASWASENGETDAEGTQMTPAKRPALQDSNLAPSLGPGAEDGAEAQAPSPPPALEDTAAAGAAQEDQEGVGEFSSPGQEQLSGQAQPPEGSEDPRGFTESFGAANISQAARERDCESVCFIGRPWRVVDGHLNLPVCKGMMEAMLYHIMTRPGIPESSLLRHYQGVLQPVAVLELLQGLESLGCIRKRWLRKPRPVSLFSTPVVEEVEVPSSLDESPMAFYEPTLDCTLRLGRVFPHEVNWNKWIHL
UniProt Q9P0R6: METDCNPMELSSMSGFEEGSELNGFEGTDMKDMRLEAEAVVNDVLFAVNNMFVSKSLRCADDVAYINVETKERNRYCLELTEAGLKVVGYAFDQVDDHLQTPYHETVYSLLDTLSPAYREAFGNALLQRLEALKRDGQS
UniProt Q9BX10: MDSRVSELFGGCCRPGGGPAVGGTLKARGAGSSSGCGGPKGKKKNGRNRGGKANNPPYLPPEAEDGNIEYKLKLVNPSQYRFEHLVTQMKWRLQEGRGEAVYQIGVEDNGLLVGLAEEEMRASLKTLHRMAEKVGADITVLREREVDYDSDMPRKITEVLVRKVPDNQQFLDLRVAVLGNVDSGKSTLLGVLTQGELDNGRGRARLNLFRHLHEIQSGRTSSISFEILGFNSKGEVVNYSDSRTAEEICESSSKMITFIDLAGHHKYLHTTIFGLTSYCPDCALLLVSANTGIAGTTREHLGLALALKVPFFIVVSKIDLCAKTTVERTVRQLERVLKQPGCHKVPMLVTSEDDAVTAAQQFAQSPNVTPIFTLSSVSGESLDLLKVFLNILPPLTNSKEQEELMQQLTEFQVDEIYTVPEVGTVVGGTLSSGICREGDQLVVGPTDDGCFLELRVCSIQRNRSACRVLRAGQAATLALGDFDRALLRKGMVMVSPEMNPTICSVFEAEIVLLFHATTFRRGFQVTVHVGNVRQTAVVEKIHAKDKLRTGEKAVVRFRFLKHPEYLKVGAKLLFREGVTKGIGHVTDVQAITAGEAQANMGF
UniProt P78347: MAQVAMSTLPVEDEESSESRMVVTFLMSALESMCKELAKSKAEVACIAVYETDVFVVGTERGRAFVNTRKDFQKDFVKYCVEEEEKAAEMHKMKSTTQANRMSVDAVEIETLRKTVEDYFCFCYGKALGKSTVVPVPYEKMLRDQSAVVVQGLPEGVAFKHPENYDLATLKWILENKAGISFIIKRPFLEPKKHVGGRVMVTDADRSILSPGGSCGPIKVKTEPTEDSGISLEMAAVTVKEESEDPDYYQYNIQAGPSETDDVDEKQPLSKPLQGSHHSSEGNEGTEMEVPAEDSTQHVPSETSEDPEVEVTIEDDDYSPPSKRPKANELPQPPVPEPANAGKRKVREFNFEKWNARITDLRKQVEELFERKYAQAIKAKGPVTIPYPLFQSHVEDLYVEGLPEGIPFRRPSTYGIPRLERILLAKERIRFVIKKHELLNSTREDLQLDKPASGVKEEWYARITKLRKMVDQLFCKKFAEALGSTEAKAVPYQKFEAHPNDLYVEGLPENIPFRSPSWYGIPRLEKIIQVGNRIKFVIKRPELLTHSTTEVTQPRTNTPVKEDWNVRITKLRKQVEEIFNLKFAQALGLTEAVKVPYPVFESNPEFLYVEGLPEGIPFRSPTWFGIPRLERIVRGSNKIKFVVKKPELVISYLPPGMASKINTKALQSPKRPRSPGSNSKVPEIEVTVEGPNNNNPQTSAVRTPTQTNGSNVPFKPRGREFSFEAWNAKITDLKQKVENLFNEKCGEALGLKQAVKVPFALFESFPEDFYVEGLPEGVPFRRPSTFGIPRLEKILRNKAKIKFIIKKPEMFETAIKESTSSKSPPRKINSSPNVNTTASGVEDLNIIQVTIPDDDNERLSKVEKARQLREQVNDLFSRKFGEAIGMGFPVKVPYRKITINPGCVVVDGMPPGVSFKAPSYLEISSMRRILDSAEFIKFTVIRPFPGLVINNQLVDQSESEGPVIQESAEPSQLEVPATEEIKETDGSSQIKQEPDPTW
UniProt P21266: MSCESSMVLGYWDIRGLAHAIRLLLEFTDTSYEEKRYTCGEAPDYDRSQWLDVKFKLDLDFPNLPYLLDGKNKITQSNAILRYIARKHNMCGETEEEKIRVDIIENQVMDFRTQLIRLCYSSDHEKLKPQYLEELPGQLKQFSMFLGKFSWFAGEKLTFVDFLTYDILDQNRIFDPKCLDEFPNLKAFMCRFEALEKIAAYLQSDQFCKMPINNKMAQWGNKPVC
UniProt P15170, whole entry, looked up: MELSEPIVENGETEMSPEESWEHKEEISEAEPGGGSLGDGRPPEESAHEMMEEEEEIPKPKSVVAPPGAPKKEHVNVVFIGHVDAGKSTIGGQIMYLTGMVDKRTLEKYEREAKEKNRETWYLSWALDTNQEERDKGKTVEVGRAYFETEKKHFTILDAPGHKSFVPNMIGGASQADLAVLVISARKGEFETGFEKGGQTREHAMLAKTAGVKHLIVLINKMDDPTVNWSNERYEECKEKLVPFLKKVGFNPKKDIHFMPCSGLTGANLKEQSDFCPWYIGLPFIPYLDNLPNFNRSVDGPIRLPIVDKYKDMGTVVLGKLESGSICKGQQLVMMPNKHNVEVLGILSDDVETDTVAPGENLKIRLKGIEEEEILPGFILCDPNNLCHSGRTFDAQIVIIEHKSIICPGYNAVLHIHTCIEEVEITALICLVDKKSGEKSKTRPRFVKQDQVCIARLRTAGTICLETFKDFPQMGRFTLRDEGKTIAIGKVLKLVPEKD
UniProt Q13098: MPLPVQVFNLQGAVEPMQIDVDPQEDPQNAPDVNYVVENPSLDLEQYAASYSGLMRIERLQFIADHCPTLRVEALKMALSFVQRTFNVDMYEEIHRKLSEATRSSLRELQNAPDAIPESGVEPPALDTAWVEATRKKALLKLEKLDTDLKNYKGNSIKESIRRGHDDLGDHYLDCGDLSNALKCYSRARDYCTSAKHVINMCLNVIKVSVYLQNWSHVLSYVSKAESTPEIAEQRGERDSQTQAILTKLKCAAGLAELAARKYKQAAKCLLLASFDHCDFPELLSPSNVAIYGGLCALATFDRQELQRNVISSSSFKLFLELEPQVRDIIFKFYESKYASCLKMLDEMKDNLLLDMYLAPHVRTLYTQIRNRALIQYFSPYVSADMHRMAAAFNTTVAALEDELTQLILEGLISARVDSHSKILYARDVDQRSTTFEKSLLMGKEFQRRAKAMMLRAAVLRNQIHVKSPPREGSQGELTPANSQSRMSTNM
UniProt Q8NEC7: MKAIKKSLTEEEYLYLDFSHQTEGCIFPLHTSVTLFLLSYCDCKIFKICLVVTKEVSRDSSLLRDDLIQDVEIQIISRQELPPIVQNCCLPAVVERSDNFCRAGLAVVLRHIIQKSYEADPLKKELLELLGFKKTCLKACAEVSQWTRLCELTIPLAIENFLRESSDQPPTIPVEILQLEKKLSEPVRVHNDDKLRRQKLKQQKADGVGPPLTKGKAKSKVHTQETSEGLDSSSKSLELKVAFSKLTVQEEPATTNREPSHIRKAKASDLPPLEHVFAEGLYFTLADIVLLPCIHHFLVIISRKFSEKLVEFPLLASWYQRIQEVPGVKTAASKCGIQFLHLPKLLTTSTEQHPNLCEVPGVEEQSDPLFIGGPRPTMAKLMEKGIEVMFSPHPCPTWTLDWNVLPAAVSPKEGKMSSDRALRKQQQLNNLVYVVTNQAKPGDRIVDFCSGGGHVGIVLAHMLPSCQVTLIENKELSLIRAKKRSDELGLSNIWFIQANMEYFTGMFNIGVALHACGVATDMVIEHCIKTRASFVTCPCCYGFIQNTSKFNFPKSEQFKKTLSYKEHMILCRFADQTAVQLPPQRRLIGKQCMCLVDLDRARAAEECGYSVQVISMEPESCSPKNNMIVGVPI
UniProt Q9NVX0: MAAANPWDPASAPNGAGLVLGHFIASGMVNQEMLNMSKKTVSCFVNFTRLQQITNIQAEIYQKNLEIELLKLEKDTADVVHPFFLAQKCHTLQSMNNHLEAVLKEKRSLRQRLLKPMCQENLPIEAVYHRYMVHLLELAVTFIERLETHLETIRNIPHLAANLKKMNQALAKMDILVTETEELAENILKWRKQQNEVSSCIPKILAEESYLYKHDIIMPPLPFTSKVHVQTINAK

Compound: CC1Cc2ccccc2N1C(=O)C1CCCN(C1)C(=O)CCl (mixture of isomers) [TRIM25 ligand 11 (diastereomer mixture)]
Experiment: probe-labelled cysteine peptide fold change vs DMSO (competition) (log2 fold change); higher = less target engagement (more negative = stronger competition)
Conditions: THP-1, incubation time: 4 h
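Also: competitive chemoproteomic profiling in live THP-1 cells with an iodoacetamide desthiobiotin (IA-DTB) probe, comparing probe-labelled peptide intensities in compound-treated cells against DMSO-treated controls.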

| Target | probe-labelled cysteine peptide fold change (10 µM) | probe-labelled cysteine peptide fold change (50 µM) |
| --- | --- | --- |
| GRK4_P32298_204_GGFGEVCACQVR (UniProt P32298) | 0.149 | 0.0931 |
| HADHA_P40939_322_TGIEQGSDAGYLCESQK (UniProt P40939) | -0.0938 | -0.0933 |
| GRPEL2_Q8TAA5_87_AIADCENIR (UniProt Q8TAA5) | 0.225 | 0.00166 |
| GTSE1_Q9NYZ3_436_DSCLNSK (UniProt Q9NYZ3) | -0.103 | -0.0749 |
| HAGH_Q16775_157+164_CLATPCHTSGHICYFVSK (UniProt Q16775) | 0.3 | -0.0168 |
| GUSB_P08236_396_TSHYPYAEEVMQMCDR (UniProt P08236) | 0.00387 | 0.183 |
| GSK3B_P49841_335_LTPLEACAHSFFDELRDPNVK (UniProt P49841) | 0.0464 | 0.000309 |
| GTF3C1_Q12789_1999_VVDGHLNLPVCK (UniProt Q12789) | 0.069 | -0.0366 |
| GSN_P06396_672_LFACSNK (UniProt P06396) | 0.15 | 0.113 |
| GTF2H3_Q13889_142_ALCYIHR (UniProt Q13889) | 0.00371 | 0.0325 |
| HADH_Q16836_211_HPVSCK (UniProt Q16836) | 0.0299 | -0.0168 |
| GSKIP_Q9P0R6_59_CADDVAYINVETK (UniProt Q9P0R6) | 0.0511 | 0.135 |
| GTPBP2_Q9BX10_249_TAEEICESSSK (UniProt Q9BX10) | 0.027 | 0.0181 |
| GTF2I_P78347_903_ITINPGCVVVDGMPPGVSFK (UniProt P78347) | 0.0306 | -0.0743 |
| GTPBP8_Q8N3Z3_114_IDHAPDLPRPEVCFIGR (UniProt Q8N3Z3) | -0.0514 | 0.0691 |
| GYS1_P13807_251_AAAHCAHVFTTVSQITAIEAQHLLK (UniProt P13807) | 0.145 | 0.111 |
| GTF3C1_Q12789_1008_NAVIVDTTICDPHYNLAR (UniProt Q12789) | 0.0325 | 0.0452 |
| GTF3C1_Q12789_317+320_LQEIHPECGPCK (UniProt Q12789) | -0.00301 | -0.239 |
| GSTM3_P21266_178_CLDEFPNLK (UniProt P21266) | -0.0117 | -0.128 |
| GSTM3_P21266_119_LCYSSDHEK (UniProt P21266) | 0.138 | -0.147 |

| Target | probe-labelled cysteine peptide fold change (10 µM) | probe-labelled cysteine peptide fold change (50 µM) |
| --- | --- | --- |
| GSTM4_Q03013_174_IFEPNCLDAFPNLK (UniProt Q03013) | 0.295 | 0.161 |
| GSPT1_P15170_453_QDQVCIAR (UniProt P15170) | -0.0211 | 0.0102 |
| GPS1_Q13098_67_LQFIADHCPTLR (UniProt Q13098) | 0.126 | 0.0621 |
| GSTCD_Q8NEC7_571_EHMILCR (UniProt Q8NEC7) | 0.0436 | 0.126 |
| GTF3C5_Q9Y5Q8_242_RVCTNPVDR (UniProt Q9Y5Q8) | -0.101 | -0.0886 |
| GRAMD1B_Q3KR37_460_ASQESECYVIDAEVLTHDVPYHDYFYTINR (UniProt Q3KR37) | 0.00235 | -0.073 |
| GPX1_P07203_78_GLVVLGFPCNQFGHQENAK (UniProt P07203) | -0.043 | 0.0745 |
| GSPT1_P15170_387_GIEEEEILPGFILCDPNNLCHSGR (UniProt P15170) | 0.0401 | 0.0456 |
| GSDMD_P57764_38_RVVQELDHGGEFIPVTSLQSSTGFQPYCLVVR (UniProt P57764) | 0.181 | 0.095 |
| HAUS2_Q9NVX0_43_TVSCFVNFTR (UniProt Q9NVX0) | 0.065 | 0.0626 |
| GSTCD_Q8NEC7_335_CGIQFLHLPK (UniProt Q8NEC7) | -0.116 | -0.00154 |
| GTF2I_P78347_46_SKAEVACIAVYETDVFVVGTER (UniProt P78347) | 0.128 | 0.0217 |
| H2AFY_O75367_297_NCLALADDK (UniProt O75367) | -0.0339 | -0.0548 |
| GTF3C4_Q9UKN8_376_CVPLYHPYQK (UniProt Q9UKN8) | -0.0224 | 0.209 |
| GPRIN1_Q7Z2K8_221_VDPLCSSK (UniProt Q7Z2K8) | -0.249 | -0.0855 |
| GTF3C1_Q12789_42_VPPFPLPLEPCTQEFLWR (UniProt Q12789) | 0.234 | 0.326 |
| GRK6_P43250_425_SLCSQLLCK (UniProt P43250) | -0.0327 | -0.232 |
| GRN_P28799_534_DVECGEGHFCHDNQTCCR (UniProt P28799) | -0.0572 | -0.106 |
| HAUS2_Q9NVX0_89_CHTLQSMNNHLEAVLK (UniProt Q9NVX0) | -0.189 | -0.0693 |
